Test [1] addresses T1, Tpk2-TAP (S. cerevisiae (budding yeast)) (UniProt P06245).
T1 sequence: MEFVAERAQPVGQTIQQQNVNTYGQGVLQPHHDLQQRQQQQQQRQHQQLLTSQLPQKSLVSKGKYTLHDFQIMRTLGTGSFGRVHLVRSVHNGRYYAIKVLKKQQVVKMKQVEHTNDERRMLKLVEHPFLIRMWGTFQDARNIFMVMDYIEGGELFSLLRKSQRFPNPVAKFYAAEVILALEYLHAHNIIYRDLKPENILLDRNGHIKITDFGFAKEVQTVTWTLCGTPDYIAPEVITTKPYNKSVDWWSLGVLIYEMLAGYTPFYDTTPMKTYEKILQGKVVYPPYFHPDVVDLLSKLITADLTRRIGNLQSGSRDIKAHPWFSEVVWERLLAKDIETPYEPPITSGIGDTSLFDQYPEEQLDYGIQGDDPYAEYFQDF
Put plainly: co-IP; Tpk2 immunoprecipitated from Tpk2-TAP cells, Jhd2 detected.

Test [2] deals with T2, Jhd2-FLAG (S. cerevisiae (budding yeast)) (UniProt P47156).
T2 sequence (chain, phosphoserine at 321 and 340 (phosphorylated in vivo by Tpk2; extent not stated)): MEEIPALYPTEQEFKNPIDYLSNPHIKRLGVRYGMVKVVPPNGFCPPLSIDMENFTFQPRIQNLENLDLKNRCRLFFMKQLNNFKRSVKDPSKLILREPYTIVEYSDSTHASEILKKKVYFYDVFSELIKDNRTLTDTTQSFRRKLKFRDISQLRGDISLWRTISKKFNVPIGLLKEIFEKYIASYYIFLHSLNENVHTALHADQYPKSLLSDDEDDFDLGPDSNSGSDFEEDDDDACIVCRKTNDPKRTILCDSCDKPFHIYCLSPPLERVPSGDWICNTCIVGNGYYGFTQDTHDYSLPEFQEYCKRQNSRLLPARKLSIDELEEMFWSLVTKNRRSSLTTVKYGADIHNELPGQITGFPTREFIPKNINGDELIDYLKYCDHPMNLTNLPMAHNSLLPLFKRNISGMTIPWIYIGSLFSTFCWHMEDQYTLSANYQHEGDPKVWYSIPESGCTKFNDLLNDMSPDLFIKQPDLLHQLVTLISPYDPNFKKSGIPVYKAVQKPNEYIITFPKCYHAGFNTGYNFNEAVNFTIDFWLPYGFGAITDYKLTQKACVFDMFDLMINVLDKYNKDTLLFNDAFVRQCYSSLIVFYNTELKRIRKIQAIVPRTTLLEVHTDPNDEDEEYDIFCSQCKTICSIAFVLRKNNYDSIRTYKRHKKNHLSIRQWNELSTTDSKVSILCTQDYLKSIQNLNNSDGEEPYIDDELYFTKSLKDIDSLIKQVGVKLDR
Put plainly: co-IP; yeast whole cell extract digested with MNase, anti-FLAG M2 agarose 1 hr 4 °C, washed with 350 mM NaCl, 0.1% NP-40, Western blots; WT and tpk2Δ cells. A general note: A western blot detects proteins with antibodies after separation by electrophoresis.

Test [3] deals with T3, Jhd2-S321A, S340A-FLAG (S. cerevisiae (budding yeast)) (UniProt P47156).
T3 sequence: T2 sequence (chain, phosphoserine at 321 and 340 (phosphorylated in vivo by Tpk2; extent not stated)) with S321A, S340A
The test is described as above.

The target of test [4] is T2, Jhd2-FLAG (S. cerevisiae (budding yeast)). Put plainly: co-IP; in vitro: purified Jhd2 on anti-FLAG beads, with or without phosphorylation by purified Tpk2, then incubated with Rpd3.
Test [5] deals with T3, Jhd2-S321A, S340A-FLAG (S. cerevisiae (budding yeast)). Described as above.
For test [6], the target named is T4, Tpk2-phosphorylated Jhd2-FLAG (S. cerevisiae (budding yeast)) (UniProt P47156).
T4 sequence (chain, phosphoserine at 321 and 340 (by purified Tpk2 in vitro)): T2 sequence (chain, phosphoserine at 321 and 340 (phosphorylated in vivo by Tpk2; extent not stated))
Described as above.

Where a chain is given by its changes, count along the chain named. No constants are given. Whether binding was seen depends on the method and setting. In cells and extracts the contact can be indirect. Some results given as binding are weak or reduced against the parent protein; the word gives no strength. For part of these data: Sequences can lack the tags named with a protein.

In the case of “Jhd2 (in Tpk2-TAP cells) (from UniProt P47156 1-728) (enzyme)”, the binding entry in test [1] was “binds”.

B1: Rpd3 (enzyme, UniProt P32561 1-433)
chain: MVYEATPFDPITVKPSDKRRVAYFYDADVGNYAYGAGHPMKPHRIRMAHSLIMNYGLYKKMEIYRAKPATKQEMCQFHTDEYIDFLSRVTPDNLEMFKRESVKFNVGDDCPVFDGLYEYCSISGGGSMEGAARLNRGKCDVAVNYAGGLHHAKKSEASGFCYLNDIVLGIIELLRYHPRVLYIDIDVHHGDGVEEAFYTTDRVMTCSFHKYGEFFPGTGELRDIGVGAGKNYAVNVPLRDGIDDATYRSVFEPVIKKIMEWYQPSAVVLQCGGDSLSGDRLGCFNLSMEGHANCVNYVKSFGIPMMVVGGGGYTMRNVARTWCFETGLLNNVVLDKDLPYNEYYEYYGPDYKLSVRPSNMFNVNTPEYLDKVMTNIFANLENTKYAPSVQLNHTPRDAEDLGDVEEDSAEAKDTKGGSQYARDLHVEHDNEFY
As to B1, the binding entry in test [2] and in test [3] was “binds” throughout.

B2: Rpd3 (in vitro Co-IP) (enzyme, UniProt P32561 1-433)
chain: B1 chain
Turning to B2, the binding result in test [4], in test [5] and in test [6] was “binds” in each case.

For the origin of these results see publication PMC9515143, “Phosphorylation of Jhd2 by the Ras-cAMP-PKA(Tpk2) pathway regulates histone modifications and autophagy” (Nature Communications, 2022).
